# Measurements reported in PubChem BioAssay AID504791 (Drosophila RNAi Screening Center, 2011).
# Aim: 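Genes of the fly required for silencing by miRNA, siRNA or endo-siRNA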 (primary screen)
# Cell system: Drosophila S2-derived reporter cells
# Reagent: long dsRNA against Drosophila genes, about 150-250 ng dsRNA per well (siRNA assay); about 80-120 ng (miRNA assay)
# Duration: about 5 days (siRNA assay); about 4 days (miRNA assay)
# Challenge: copper sulfate induction of reporters: 25 µM (siRNA assay); 200 mM stated (miRNA assay), 1-2 days before reading
# Read-out: 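Dual luciferase assay: Renilla to firefly signal ratio in each well, scaled to the mean ratio of its plate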
# Reading the numbers: siRNA reporter hit score: higher = 3 marks a strong hit with raised ratio; -3 a strong hit with lowered ratio
# Active means: 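a well was a first-pass pick when its plate-scaled ratio rose above 1.5 (siRNA assay) or 1.6 (miRNA assay), or dropped below 0.6; a gene counted only if two separate dsRNAs agreed on retest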
# The screen tested about 23,000 reagents; this is an unselected part of those with a known target gene and a result. Of all reagents, 199 (0.86%) are marked active. 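Plate-scaled ratios behind the calls are not deposited; printed light signals are raw; many rows marked increased or decreased are still called inactive.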 Reagents against one gene are numbered here. A plus sign joins genes that one reagent is predicted to hit.
siRNA reporter hit score,stable siRNA reporter change,miRNA reporter change,"stable assay Renilla, run 1 (luminescence)","stable assay firefly, run 1 (luminescence)",activity call,gene,reagent
,,,11170,3.78e5,inactive,dan (GeneID 43023),1
,,,10292,4.31e5,inactive,CG5382 (GeneID 42618),1
,,reporter ratio raised past the hit cutoff,8931,2.95e5,inactive,P32 (GeneID 37006),1
,,,8776,4.10e5,inactive,Dso1 (GeneID 50126),1
,,,5772,2.94e5,inactive,ng3 (GeneID 31299),1
,,,6808,4.15e5,inactive,CG17784 (GeneID 42909),1
,,,6811,6.03e5,inactive,eIF2Bbeta (GeneID 31256),1
,,,6963,3.87e5,inactive,CG15258 (GeneID 34904),1
,,,8178,4.58e5,inactive,su(Hw) (GeneID 41740),1
,,,8679,1.84e6,inactive,Slik (GeneID 37893),1
,,,6474,4.76e5,inactive,CG13947 (GeneID 33250),1
,,reporter ratio lowered past the hit cutoff,,,inactive,CG13947 (GeneID 33250),2
,,,8060,3.01e5,inactive,rtet (GeneID 42500),1
,,,10662,4.42e5,inactive,RpS12 (GeneID 39480),1
,,,7394,3.48e5,inactive,CG13078 (GeneID 35251),1
,,,5978,3.49e5,inactive,Miox (GeneID 39391),1
,,,6912,3.46e5,inactive,sgg (GeneID 31248),1
,,,6024,3.08e5,inactive,sgg (GeneID 31248),2
,,,5870,2.77e5,inactive,sgg (GeneID 31248),3
,,,7242,3.64e5,inactive,CG18301 (GeneID 34451),1
,,,7808,3.37e5,inactive,CG14185 (GeneID 40197),1
,,,7673,4.08e5,inactive,LanB2 (GeneID 39118),1
,,,5999,5.03e5,inactive,ArgRS-m (GeneID 40929),1
,,,6143,3.91e5,inactive,CG12818 (GeneID 41261),1
,,,23195,8.09e5,inactive,CG6153 (GeneID 34675),1
,,,6031,3.79e5,inactive,COX8 (GeneID 40390),1
,,,16773,6.56e5,inactive,Tnpo-SR (GeneID 33465),1
,,,5511,4.23e5,inactive,HUWE1 (GeneID 32510),1
,,,7935,3.68e5,inactive,CG15143 (GeneID 35062),1
,,,7199,6.08e5,inactive,CG6435 (GeneID 36894),1
,,,6615,3.90e5,inactive,Or85d (GeneID 41011),1
,,,4542,4.28e5,inactive,Lcp65APsi (GeneID 3771993),1
,,,6486,5.12e5,inactive,Lcp65APsi (GeneID 3771993),2
,,,6510,4.77e5,inactive,Hcs (GeneID 40659),1
,,,6898,3.10e5,inactive,Hcs (GeneID 40659),2
,,,8613,3.62e5,inactive,Msr-110 (GeneID 38629),1
,,,6766,4.59e5,inactive,opa (GeneID 40605),1
,,,3627,2.50e5,inactive,opa (GeneID 40605),2
,,,3636,2.51e5,inactive,opa (GeneID 40605),3
,,,7604,5.00e5,inactive,CG6136 (GeneID 41877),1
,,,9844,6.44e5,inactive,spz (GeneID 43256),1
,,,5363,3.25e5,inactive,CG15741 (GeneID 32137),1
,,,7116,3.20e5,inactive,Nulp1 (GeneID 38897),1
,,reporter ratio raised past the hit cutoff,7494,1.44e6,active,Phb1 (GeneID 49168),1
,,,4979,3.28e5,inactive,CG5326 (GeneID 42655),1
,,,9209,3.74e5,inactive,CG5326 (GeneID 42655),2
,,,5964,3.50e5,inactive,CG12155 (GeneID 31682),1
,reporter ratio lowered past the hit cutoff,,2124,2.53e5,inactive,CG12155 (GeneID 31682),2
,,,5499,2.98e5,inactive,Pngl (GeneID 35527),1
,,,5494,4.18e5,inactive,CG32642 (GeneID 318137),1
,,,6907,3.65e5,inactive,Polr3E (GeneID 40325),1
,reporter ratio lowered past the hit cutoff,,4454,5.14e5,inactive,sno (GeneID 32273),1
,,,8434,3.89e5,inactive,Spn77Ba (GeneID 40234),1
,,,7972,5.09e5,inactive,CG43078 (GeneID 38981),1
,,,8575,5.28e5,inactive,CG43078 (GeneID 38981),2
,,,10490,4.24e5,inactive,CG43078 (GeneID 38981),3
,,,9409,6.22e5,inactive,CG43078 (GeneID 38981),4
,,,6911,5.10e5,inactive,atlas (GeneID 37689),1
,,,9678,6.24e5,inactive,CG10139 (GeneID 36626),1
,,,7587,4.10e5,inactive,Tcs4 (GeneID 32982),1
,,,3496,3.86e5,inactive,Octalpha2R (GeneID 42258),1
,,,7650,5.49e5,inactive,Octalpha2R (GeneID 42258),2
,,,4627,2.25e5,inactive,brk (GeneID 31665),1
,,,4839,3.10e5,inactive,brk (GeneID 31665),2
,,,5672,3.31e5,inactive,CG2065 (GeneID 35707),1
,,,8651,6.74e5,inactive,CG2065 (GeneID 35707),2
,,,6947,3.58e5,inactive,gcm (GeneID 34277),1
,,,8682,4.88e5,inactive,Semp1 (GeneID 34914),1
,reporter ratio lowered past the hit cutoff,,7399,7.80e5,inactive,CG43736 + CG33692 (retired record),1
,,,6424,3.83e5,inactive,CG43736 + CG33692 (retired record),2
,,,7831,2.73e5,inactive,HipHop (GeneID 40047),1
,,,5731,5.30e5,inactive,Wnt10 (GeneID 34011),1
,,,8027,4.27e5,inactive,Wnt10 (GeneID 34011),2
,,,7854,4.74e5,inactive,CG14285 (GeneID 42281),1
,,,2.92e5,1.34e6,inactive,CG4891 (GeneID 34948),1
,,,8962,3.77e5,inactive,CG10444 (GeneID 37294),1
,,,45778,2.82e5,inactive,CG17010 (GeneID 34650),1
,,,7002,2.98e5,inactive,CG14478 (GeneID 36964),1
,,,5351,4.16e5,inactive,CG34454 (GeneID 5740130),1
3,,,7905,4.23e5,inactive,alphaTub84D (GeneID 40904),1
,,,6870,3.99e5,inactive,CG11192 (GeneID 37309),1
,,,6303,6.09e5,inactive,Ssu72 (GeneID 32973),1
,,,9134,4.86e5,inactive,pan (GeneID 43769),1
,,,4091,4.10e5,inactive,pan (GeneID 43769),2

13 entries from above, arranged by “stable assay Renilla, run 1 (luminescence)”, low to high:
siRNA reporter hit score,stable siRNA reporter change,miRNA reporter change,"stable assay Renilla, run 1 (luminescence)","stable assay firefly, run 1 (luminescence)",activity call,gene,reagent
,,,3496,3.86e5,inactive,Octalpha2R (GeneID 42258),1
,reporter ratio lowered past the hit cutoff,,4454,5.14e5,inactive,sno (GeneID 32273),1
,,,4627,2.25e5,inactive,brk (GeneID 31665),1
,,,6907,3.65e5,inactive,Polr3E (GeneID 40325),1
,,,6911,5.10e5,inactive,atlas (GeneID 37689),1
,,,7587,4.10e5,inactive,Tcs4 (GeneID 32982),1
,,,7650,5.49e5,inactive,Octalpha2R (GeneID 42258),2
,,,7972,5.09e5,inactive,CG43078 (GeneID 38981),1
,,,8434,3.89e5,inactive,Spn77Ba (GeneID 40234),1
,,,8575,5.28e5,inactive,CG43078 (GeneID 38981),2
,,,9409,6.22e5,inactive,CG43078 (GeneID 38981),4
,,,9678,6.24e5,inactive,CG10139 (GeneID 36626),1
,,,10490,4.24e5,inactive,CG43078 (GeneID 38981),3
